According to PubChem BioAssay AID2685 (National Center for Advancing Translational Sciences (NCATS), 2010):
Among all 320,000 compounds or so, about 2,100 (0.66%) were called active. Inconclusive means that the source gave no clear call. Such entries were picked first, then a sample of the others. Calls follow the shape of the dose curve; as a rule, active = well fitted inhibition curve with a large enough effect in the signal ratio, with a control signal flat (not every such curve was filed as active); inconclusive = small, poorly fitted or top-dose-only effect, or effect the other way, or a change in a side signal; inactive = flat fitted curve, though single readings scatter; the % refers to the signal ratio. A potency beside an inconclusive call is a rough fit, not a confirmed value.

Assay: qHTS Assay for Lipid Storage Modulators in Drosophila S3 Cells
Settings: BODIPY lipid droplet fluorescence, 18-24 h, cells fed with added oleic acid; lipid storage change, negative = inhibition: at 46.1 µM (top of the series) unless noted
Summary of the method: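 Drosophila S3 cells loaded with oleic acid (400 uM, as added) and compounds at several concentrations; lipid droplets imaged by 488-nm laser-scanning cytometry, 500–530 nm intensity and object ratio to cell channel. Percent activity normalized to 20 uM Triacsin C.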
% is scaled to controls: 0 for no effect and ±100 for the full control effect; potency is read from the fitted curve at half-maximal effect.

SMILES | lipid storage change, negative = inhibition | Potency
CC(C)N1CC(O)=C(c2nc3ccccc3[nH]2)C1=N | inconclusive: 9.79% | 
CCc1nnc(NS(=O)(=O)c2ccc(NC(=O)c3ccccc3OC)cc2)s1 |  | inconclusive: 32.6 µM [activator, single point]
OCCN=C(c1ccccc1)C12CN3CN(CN(C3)C1)C2 | inconclusive: -3.99% | 
Cc1ccc(S(=O)(=O)N(CC(=O)Nc2cccnc2)c2cccc([N+](=O)[O-])c2)cc1 | inconclusive: -23.2% | 
Cc1cc(NS(=O)(=O)c2ccc(NC(=O)c3ccc([N+](=O)[O-])c(Cl)c3)cc2)no1 |  | inconclusive: 29.1 µM [activator, single point]
COc1ccc(NC(=O)CSc2nc(O)cc(=O)n2-c2ccccc2)cc1 |  | inconclusive: 14.6 µM [activator, partial curve]
CCOC(=O)N1CCC(N(CCN(C)C)C(=S)Nc2cccc(Cl)c2C)CC1 | inconclusive: 2.17% | 
CCOC(=O)c1ccc(NC(=O)Nc2ccn(C)n2)cc1 |  | inconclusive: 3.66 µM [activator, partial curve, poor fit]
CCCn1c(NC(=O)CN2C(=O)NC3(CCCC3)C2=O)nc2ccccc21 | inconclusive: -35.6% [at 0.0737 µM] | 
CCOc1ccc(S(=O)(=O)N(CC(=O)NCC2CCCO2)c2ccc(F)cc2)cc1 (stereo not given) | inconclusive: -49% | 
CCOc1ccc(C(=O)N(c2ccccn2)C2CCCCC2)cc1 | inconclusive: 15% | 
O=C1CCC(=O)N1c1ccc(NCc2ccccc2Cl)c([N+](=O)[O-])c1 | inconclusive: 6.21% | 
COC(=O)c1ccccc1NC(=O)C12CCC(C)(C(=O)O1)C2(C)C (stereo not given) | inconclusive: 73.6% | 
Cc1nc(Nc2cnc(/C=C/c3cc(C(=O)Nc4cccc(C(F)(F)F)c4)ccc3C)cn2)cc(N2CCNCC2)n1 |  | inconclusive: 3.66 µM [falling, partial curve]
C=CCOc1ccc(CNC(C)(C)C)cc1OC | inconclusive: 5.54% | 
Cc1ccc(Nc2ncccc2C(N)=O)cc1 | inconclusive: 6.46% | 
CN(c1ccccc1)S(=O)(=O)c1cccc(C(=O)Nc2ccc3c(c2)CCC3)c1 | inconclusive: 2.31% | 
CCC(C)(C)NC(=O)/C=C/c1cnc2ccccc2n1 |  | inconclusive: 0.651 µM [rising, full curve, poor fit]
O=C(NCCCc1ccccc1)c1ccc(-n2cncn2)c([N+](=O)[O-])c1 |  | inconclusive: 4.11 µM [falling, single point]
COc1ccc([C@H]2CC(=O)C=C(c3cc(Cl)ccc3OC)C2)cc1 |  | inconclusive: 1.16 µM [falling, single point]
COc1ccccc1OCC(=O)Nc1ccc(O)cc1C(=O)O | inconclusive: 7.64% | 
C/C(=N\NC(=O)c1ccco1)c1ccc(NC(=O)c2ccccc2)cc1 | inconclusive: 22.4% | 
Cc1cccc(NC(=S)c2nc3ccccc3s2)c1 |  | inconclusive: 29.1 µM [activator, single point]
O=C(CSc1nc(-c2ccc(F)cc2)cs1)NCCN1C(=O)CSC1=O | inactive | 
C[C@H]1CC[C@H]2C(=O)N[C@H](Cc3ccccc3)C(=O)N2[C@@H]1c1ccccc1 | inconclusive: -17.5% | 

SMILES | lipid storage change, negative = inhibition | Potency
Cc1cc(/C=C(\C#N)C(=O)O)c(C)n1CCC(C)C | inconclusive: -21.5% | 
Cc1cc(/C=N/NC(=O)c2ccccc2F)c(C)n1-c1ccccc1 | inconclusive: 0.564% | 
CCOc1cc(C(=O)Nn2cnnc2)cc(OCC)c1OCC | inconclusive: 42.8% | 
C=C1CC2C(CCC3(C)C2CCC3(O)C(C)=O)C2(C)CCC(=O)C=C12 (stereo not given) | inconclusive: -49.8% | 
Cc1ccc(C(=O)/C=C/c2ccc(F)cc2)o1 | inconclusive: 10.1% | 
CCOC(=O)C1=NOC(CNc2ncc(C(F)(F)F)cc2Cl)C1 (stereo not given) |  | inconclusive: 16.4 µM [falling, partial curve]
O=C(C1=C[C@@H](C2CC2)C[C@@H](OCc2ccc(CO)cc2)O1)N1CCOCC1 | inactive | 
O=C(CCC(=O)N1CCCCC1)Nc1ccc(Cl)c(Cl)c1 | inconclusive: 21.9% | 
Cc1cccc(C(=O)Nc2cccc(NC(=O)c3ccccc3)c2)c1 |  | inconclusive: 3.66 µM [falling, full curve, poor fit]
CC(=O)N1CCN(CC(=O)Nc2cc(S(=O)(=O)N3CCOCC3)ccc2C)CC1 | inconclusive: 53.7% | 
C=CCOC(=O)C1=C[C@@H](c2csc3ccccc23)C[C@@H](OCc2ccc(CO)cc2)O1 | inconclusive: 10% | 
Cc1ccc(C(=O)COC(=O)c2cnccn2)cc1C | inconclusive: -52.6% | 
O=C(CSc1nnc(Cc2ccccc2)n1-c1cccc(Cl)c1)N1CCOCC1 | inconclusive: -4.4% | 
Cc1sc2nc(C)n(/N=C/c3ccccc3O)c(=O)c2c1C |  | inconclusive: 0.651 µM [falling, single point]
O=C(CN1C(=O)c2cccnc2Oc2ccc(Cl)cc21)N1CCCC1 |  | inconclusive: 10.3 µM [falling, partial curve]
COC(=O)c1cc(-c2c(C)oc3cc(OC(C)C)ccc3c2=O)c(C)o1 |  | inconclusive: 0.116 µM [activator, single point]
O=[N+]([O-])c1ccc(Oc2cccc3cccnc23)c([N+](=O)[O-])c1 |  | inconclusive: 20.6 µM [falling, single point]
CCN(CC)S(=O)(=O)c1ccc(Cl)c(NC(=O)COC(=O)c2ccc(O)cc2)c1 | inconclusive: -16.6% | 
COc1ccc(-n2c(=O)c3ccccc3n(CC(=O)Nc3cccc(OC)c3)c2=O)cc1 | inconclusive: 4.22% | 
Cc1cc(C)n2nc(SCC(=O)c3cc(C)n(-c4cc(C)on4)c3C)nc2n1 |  | inconclusive: 1.46 µM [cytotoxic, full curve]
N#Cc1ccc(/C=C/C(=O)c2ccco2)cc1 |  | inconclusive: 16.4 µM [falling, single point]
COc1ccc(CN2C(=O)CSC2c2ccccn2)cc1 (stereo not given) | inconclusive: 5.72% | 
Cc1ccc(S(=O)(=O)CCC(=O)OCc2ccccc2F)cc1 | inconclusive: 13.9% | 
Cc1ccc(NC(=O)C(C)c2ccc([N+](=O)[O-])cc2)cc1Cl (stereo not given) | inconclusive: -19.9% | 
O=C(NCCCn1ccnc1)/C(=C\c1cccs1)NC(=O)c1cccs1 | inconclusive: -3.17% | 

SMILES | lipid storage change, negative = inhibition | Potency
O=C(Nc1ccccc1)c1ccccc1OS(=O)(=O)c1ccccc1 |  | inconclusive: 1.84 µM [activator, partial curve]
Oc1cccc(Oc2ncc(C(F)(F)F)cc2Cl)c1 | inconclusive: -59.4% | 
COc1cc(NC(=S)NC(=O)c2ccc(C(C)(C)C)cc2)ccc1NC(=O)c1cccs1 | inconclusive: 12.5% | 
O=C(Cc1c(F)cccc1Cl)N1CCN(S(=O)(=O)c2cccs2)CC1 | inconclusive: 24% | 
CCC1Sc2ccc(S(=O)(=O)CCC(=O)NC3CCCCCC3)cc2NC1=O (stereo not given) |  | inconclusive: 29.1 µM [falling, single point]
Cc1ccc(C(C(=O)NC2CCCCC2)N(C(=O)Cc2c[nH]c3ccccc23)c2ccccc2C)o1 (stereo not given) | inconclusive: -18.9% | 
Cc1nc(N)ncc1-c1ccc2c(c1)OCO2 | inconclusive: 16.5% | 
O=c1cc(CN2CCN(Cc3ccccc3)CC2)c2ccc(O)c(O)c2o1 |  | inconclusive: 29.1 µM [falling, single point]
COc1ccc(OC)c(N(CC(=O)NCc2cccnc2)S(C)(=O)=O)c1 | inconclusive: 8.78% | 
COc1cccc(CNC(=O)CCCC(=O)Nc2cccc([N+](=O)[O-])c2)c1 |  | inconclusive: 29.1 µM [falling, single point]
Cc1cc(C(=O)CSc2ccccc2)cc(C)c1O | inconclusive: 17.1% | 
Cc1c(Cl)cccc1NC(=O)c1ccc(-n2ccnc2)nc1 |  | inconclusive: 6.51 µM [falling, single point]
Cc1ccc(-c2csc(NC(=O)CCNC(=O)c3ccco3)n2)cc1 | inconclusive: -22.8% | 
COc1cc(OC)cc(C(=O)NNC(=O)c2cc3c(s2)CCCC3)c1 | inconclusive: -20.1% | 
CSc1ccc(S(=O)(=O)Nc2ccc(N3CCOCC3)c(Cl)c2)cc1 |  | inconclusive: 20.6 µM [activator, partial curve]
O=C1ON=C(c2ccccc2[N+](=O)[O-])/C1=C/c1cccc([N+](=O)[O-])c1O | inconclusive: 13% | 
Cc1noc(NS(=O)(=O)c2ccc(N/C=C/C(=O)c3ccccc3)cc2)c1C |  | inconclusive: 9.2 µM [activator, partial curve]
CN1CCN(C(=O)c2cnn(-c3ccccc3)c2NC(=O)c2ccccc2Br)CC1 | inconclusive: 131% | 
COc1ccc(CN(Cc2cccn2C)S(=O)(=O)c2cccc(C(F)(F)F)c2)cc1 |  | inconclusive: 0.651 µM [rising, full curve]
O=C(O)c1ccccc1NCc1ccncc1 | inconclusive: 2.59% | 
CC(C)Cc1n[nH]c(=O)[nH]1 | inconclusive: 4.53% | 
CC(C)(C)NC(=O)c1cccc(NC(=O)c2ccc3c(c2)C(=O)N(C(C)(C)C)C3=O)c1 | inconclusive: -9.62% | 
COc1cc(-c2nc(-c3cccnc3)no2)cc(OC)c1OC | inconclusive: -2.14% | 
CC(=O)Nc1ccc(Sc2ccccc2C(=O)O)cc1 | inconclusive: -47.4% [cytotoxic] [at 0.00295 µM] | 
Cc1ccccc1Cn1cc(NC(=O)c2cc(-c3ccco3)on2)cn1 |  | inconclusive: 29.1 µM [falling, single point]

Single records (already shown):
O=c1cc(CN2CCN(Cc3ccccc3)CC2)c2ccc(O)c(O)c2o1 is entered as Potency: inconclusive: 29.1 µM [falling, single point]
CCOC(=O)C1=NOC(CNc2ncc(C(F)(F)F)cc2Cl)C1 (stereo not given) is entered as Potency: inconclusive: 16.4 µM [falling, partial curve]
OCCN=C(c1ccccc1)C12CN3CN(CN(C3)C1)C2 is entered as lipid storage change, negative = inhibition: inconclusive: -3.99%
